PMC10265101
Results are given in words; binding and its absence hold for the method and conditions named. Some results given as binding are weak or reduced against the parent protein; the word gives no strength.

Chains of the proteins cited; added tags and fusions are not shown. Residues count along the entry.
UniProt Q9NZQ7, residues 19-290: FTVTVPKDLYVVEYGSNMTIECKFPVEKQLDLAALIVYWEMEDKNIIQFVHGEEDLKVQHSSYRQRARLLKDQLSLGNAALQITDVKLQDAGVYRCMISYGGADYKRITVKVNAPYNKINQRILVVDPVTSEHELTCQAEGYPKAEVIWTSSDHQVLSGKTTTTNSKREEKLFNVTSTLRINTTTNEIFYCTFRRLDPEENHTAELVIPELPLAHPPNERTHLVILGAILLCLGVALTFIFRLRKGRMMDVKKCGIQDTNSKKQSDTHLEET

Target: PD-L1 on A549, H1975 and MDA-MB-231 cells (human (endogenous in A549, H1975, MDA-MB-231)) (UniProt Q9NZQ7)
Assay: flow cytometry on cells; non-contact transwell coculture (0.4 µm): 1 x 10^5 cells at the bottom, 5 x 10^5 Nb-CAR.BiTE-γδT cells on top, 24 h; bottom cells stained with anti-VHH antibody

B1: secreted PD-L1/CD3ε Nb-BiTE from Nb-CAR.BiTE-γδT cells (bispecific antibody)
chain: HVQLVESGGGLVQPGGSLRLSCAASGFTFSSKAMSWVRQAPGKGLDWVSTINSGGGNTYYSDSVKGRFTISRDNAKNTLYLQLNSLKTEDTAMYYCSRCSDIYCGGQYTYRGQGTLVTVSSGGGGSGGGGSGGGGSEVQLVESGGGLVQPGGSLRLSCVASGFTFSSIGMSWVRQAPGKGLEWVSGLNPVGSHTGYADSVKGRFTISRDNAKNTLHLQLNSLKTEDTAMYYCQRGYTCSGDLCERGQGTQVTVSSGGGGSGGGGSGGGGSHVQLVESGGGSVQAGGSLRLSCTVSGVIFKNEYMGWFRQAPGKEREGVAAASPGGTITYYGDSVKGRFTISRDNAKNTVYLQMNRLKPEDTAMYYCALDPSTTSWSIIRHGPSLWRYSGRGTQVTVSS
For B1, the binding was “binds”.
